Results: the supplement of paper PMC8728848
This is one part of the list.

Key:
Experiment in all cases: glycan array binding signal (z-score within array); higher = stronger binding
Conditions in all cases: glycan notation: IUPAC condensed, linker removed
[1] = target: Gal(a1-3)Gal(b1-3)GlcNAc
Procedure, shortened: (§1)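 Glycan array binding is given as a within-array Z-score, which can be read as non-binding when negative. The arrays, 3228 of them, came from the Consortium for Functional Glycomics database and were retained only where the protein sequence was available. Z-scores were averaged across arrays of the same protein sequence at different concentrations or buffers and across linkers.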

[2] = target: Gal(a1-3)Gal(b1-3)GlcNAc(b1-2)Man(a1-3)[Gal(a1-3)Gal(b1-3)GlcNAc(b1-2)Man(a1-6)]Man(b1-4)GlcNAc(b1-4)GlcNAc
Procedure, shortened: as §1

[3] = target: Gal(a1-3)Gal(b1-3)GlcNAc(b1-3)GalNAc
Procedure, shortened: as §1

[4] = target: Gal(a1-3)Gal(b1-3)GlcNAc(b1-6)GalNAc
Procedure, shortened: as §1

[5] = target: Gal(a1-3)Gal(b1-3)[Fuc(a1-4)]GlcNAc(b1-2)Man(a1-3)[Gal(a1-3)Gal(b1-3)[Fuc(a1-4)]GlcNAc(b1-2)Man(a1-6)]Man(b1-4)GlcNAc(b1-4)GlcNAc
Procedure, shortened: as §1

[6] = target: Gal(a1-3)Gal(b1-4)Glc
Procedure, shortened: as §1

[7] = target: Gal(a1-3)Gal(b1-4)GlcNAc
Procedure, shortened: as §1

[8] = target: Gal(a1-3)Gal(b1-4)GlcNAc(b1-3)GalNAc
Procedure, shortened: as §1

[9] = target: Gal(a1-3)Gal(b1-4)GlcNAc(b1-6)GalNAc
Procedure, shortened: as §1

[10] = target: Gal(a1-3)Gal(b1-4)[Fuc(a1-3)]GlcNAc
Procedure, shortened: as §1

[11] = target: Gal(a1-3)Gal(b1-4)[Fuc(a1-3)]GlcNAc(b1-2)Man(a1-3)[Gal(a1-3)Gal(b1-4)[Fuc(a1-3)]GlcNAc(b1-2)Man(a1-6)]Man(b1-4)GlcNAc(b1-4)GlcNAc
Procedure, shortened: as §1

[12] = target: Gal(a1-3)GalNAc
Procedure, shortened: as §1

[13] = target: Gal(a1-3)[Gal(a1-4)]Gal(b1-4)GlcNAc
Procedure, shortened: as §1

[14] = target: Gal(a1-4)Gal(b1-3)GlcNAc(b1-2)Man(a1-3)[Gal(a1-4)Gal(b1-3)GlcNAc(b1-2)Man(a1-6)]Man(b1-4)GlcNAc(b1-4)GlcNAc
Procedure, shortened: as §1

[15] = target: Gal(a1-4)Gal(b1-4)Glc
Procedure, shortened: as §1

[16] = target: Gal(a1-4)Gal(b1-4)GlcNAc
Procedure, shortened: as §1

[17] = target: Gal(a1-4)Gal(b1-4)GlcNAc(b1-2)Man(a1-3)[Gal(a1-4)Gal(b1-4)GlcNAc(b1-2)Man(a1-6)]Man(b1-4)GlcNAc(b1-4)GlcNAc
Procedure, shortened: as §1

[18] = target: Gal(a1-4)Gal(b1-4)GlcNAc(b1-3)Gal(b1-4)Glc
Procedure, shortened: as §1

[19] = target: Gal(a1-4)GlcNAc
Procedure, shortened: as §1

[20] = target: Gal(a1-6)Glc
Procedure, shortened: as §1

[21] = target: Gal(b1-2)Gal
Procedure, shortened: as §1

[22] = target: Gal(b1-3)Gal
Procedure, shortened: as §1

[23] = target: Gal(b1-3)Gal(b1-4)GlcNAc
Procedure, shortened: as §1

[24] = target: Gal(b1-3)Gal(b1-4)GlcNAc(b1-2)Man(a1-3)[Gal(b1-3)Gal(b1-4)GlcNAc(b1-2)Man(a1-6)]Man(b1-4)GlcNAc(b1-4)GlcNAc
Procedure, shortened: as §1

[25] = target: Gal(b1-3)GalNAc
Procedure, shortened: as §1

[26] = target: Gal(b1-3)GalNAc(a1-3)[Fuc(a1-2)]Gal(b1-4)Glc
Procedure, shortened: as §1

[27] = target: Gal(b1-3)GalNAc(a1-3)[Fuc(a1-2)]Gal(b1-4)GlcNAc
Procedure, shortened: as §1

[28] = target: Gal(b1-3)GalNAc(b1-3)Gal(a1-4)Gal(b1-4)Glc
Procedure, shortened: as §1

[29] = target: Gal(b1-3)GalNAc(b1-4)Gal(b1-4)Glc
Procedure, shortened: as §1

[30] = target: Gal(b1-3)GalNAc(b1-4)[Neu5Ac(a2-3)]Gal(b1-4)Glc
Procedure, shortened: as §1

[31] = target: Gal(b1-3)GlcNAc
Procedure, shortened: as §1

[32] = target: Gal(b1-3)GlcNAc(a1-3)Gal(b1-4)GlcNAc
Procedure, shortened: as §1

[33] = target: Gal(b1-3)GlcNAc(a1-6)Gal(b1-4)GlcNAc
Procedure, shortened: as §1

[34] = target: Gal(b1-3)GlcNAc(b1-2)Man(a1-3)[Gal(b1-3)GlcNAc(b1-2)Man(a1-6)]Man(b1-4)GlcNAc(b1-4)GlcNAc
Procedure, shortened: as §1

[35] = target: Gal(b1-3)GlcNAc(b1-2)Man(a1-3)[Gal(b1-3)GlcNAc(b1-2)Man(a1-6)]Man(b1-4)GlcNAc(b1-4)[Fuc(a1-6)]GlcNAc
Procedure, shortened: as §1

[36] = target: Gal(b1-3)GlcNAc(b1-2)Man(a1-3)[GlcNAc(b1-4)][Gal(b1-3)GlcNAc(b1-2)Man(a1-6)]Man(b1-4)GlcNAc(b1-4)GlcNAc
Procedure, shortened: as §1

[37] = target: Gal(b1-3)GlcNAc(b1-2)[Gal(b1-3)GlcNAc(b1-6)]Man(a1-6)[Gal(b1-3)GlcNAc(b1-2)Man(a1-3)]Man(b1-4)GlcNAc(b1-4)GlcNAc
Procedure, shortened: as §1

B1: CALR truncated at D342 (Homo sapiens) (protein)
chain: EPAVYFKEQFLDGDGWTSRWIESKHKSDFGKFVLSSGKFYGDEEKDKGLQTSQDARFYALSASFEPFSNKGQTLVVQFTVKHEQNIDCGGGYVKLFPNSLDQTDMHGDSEYNIMFGPDICGPGTKKVHVIFNYKGKNVLINKDIRCKDDEFTHLYTLIVRPDNTYEVKIDNSQVESGSLEDDWDFLPPKKIKDPDASKPEDWDERAKIDDPTDSKPEDWDKPEHIPDPDAKKPEDWDEEMDGEWEPPVIQNPEYKGEWKPRQIDNPDYKGTWIHPEIDNPEYSPDPSIYAYDNFGVLGLDLWQVKSGTIFDNFLITNDEAYAEEFGNETWGVTKAAEKQMKD
- glycan array binding signal (z-score) [1]: 0.508
- glycan array binding signal (z-score) [2]: 0.21
- glycan array binding signal (z-score) [3]: -0.106
- glycan array binding signal (z-score) [4]: 0.243
- glycan array binding signal (z-score) [5]: 0.326
- glycan array binding signal (z-score) [6]: -0.012
- glycan array binding signal (z-score) [7]: -0.398
- glycan array binding signal (z-score) [8]: 1.84
- glycan array binding signal (z-score) [9]: 0.18
- glycan array binding signal (z-score) [10]: -1.11
- glycan array binding signal (z-score) [11]: 2.73
- glycan array binding signal (z-score) [12]: -0.982
- glycan array binding signal (z-score) [13]: 0.844
- glycan array binding signal (z-score) [14]: 0.526
- glycan array binding signal (z-score) [15]: 0.011
- glycan array binding signal (z-score) [16]: -0.923
- glycan array binding signal (z-score) [17]: 0.225
- glycan array binding signal (z-score) [18]: -0.766
- glycan array binding signal (z-score) [19]: 4.99
- glycan array binding signal (z-score) [20]: -0.196
- glycan array binding signal (z-score) [21]: 1.78
- glycan array binding signal (z-score) [22]: 1.99
- glycan array binding signal (z-score) [23]: -0.638
- glycan array binding signal (z-score) [24]: 0.087
- glycan array binding signal (z-score) [25]: 0.014
- glycan array binding signal (z-score) [26]: 0.318
- glycan array binding signal (z-score) [27]: 0.837
- glycan array binding signal (z-score) [28]: -0.396
- glycan array binding signal (z-score) [29]: -0.129
- glycan array binding signal (z-score) [30]: -0.443
- glycan array binding signal (z-score) [31]: -0.45
- glycan array binding signal (z-score) [32]: -0.141
- glycan array binding signal (z-score) [33]: 0.966
- glycan array binding signal (z-score) [34]: -0.863
- glycan array binding signal (z-score) [35]: -0.178
- glycan array binding signal (z-score) [36]: -0.281
- glycan array binding signal (z-score) [37]: 3.33
